According to PMC12284529:
Results are given in words; binding and its absence hold for the method and conditions named. In cells and extracts the contact can be indirect. A result given as binding can be weak or reduced; the word gives no strength. Each block holds one binder with its values, some of them ahead of it.

Experiments:
GST-HIPK4 = assay: pull-down; GST fusions from bacteria coupled to glutathione-Sepharose 4B beads, incubated with 293T cells for 2 h at 4 °C; washed with GST-binding buffer; Western blot with anti-TAp63 or HIPK4 antibodies; only the target purified
Flag-HIPK4 (WT) = assay: co-IP; cells (A431) transfected with Flag-tagged TAp63 or HIPK4 constructs; lysates incubated overnight with sepharose CL-4B beads pre-bound to IgG, TAp63, Flag or HIPK4 antibodies; Western blot
Flag-HIPK4 (H136D) = assay: as above

binding (GST-HIPK4): binds
B1: TAp63 in 293T cells (protein, UniProt Q9H3D4 1-680)
chain: MNFETSRCATLQYCPDPYIQRFVETPAHFSWKESYYRSTMSQSTQTNEFLSPEVFQHIWDFLEQPICSVQPIDLNFVDEPSEDGATNKIEISMDCIRMQDSDLSDPMWPQYTNLGLLNSMDQQIQNGSSSTSPYNTDHAQNSVTAPSPYAQPSSTFDALSPSPAIPSNTDYPGPHSFDVSFQQSSTAKSATWTYSTELKKLYCQIAKTCPIQIKVMTPPPQGAVIRAMPVYKKAEHVTEVVKRCPNHELSREFNEGQIAPPSHLIRVEGNSHAQYVEDPITGRQSVLVPYEPPQVGTEFTTVLYNFMCNSSCVGGMNRRPILIIVTLETRDGQVLGRRCFEARICACPGRDRKADEDSIRKQQVSDSTKNGDGTKRPFRQNTHGIQMTSIKKRRSPDDELLYLPVRGRETYEMLLKIKESLELMQYLPQHTIETYRQQQQQQHQHLLQKQTSIQSPSSYGNSSPPLNKMNSMNKLPSVSQLINPQQRNALTPTTIPDGMGANIPMMGTHMPMAGDMNGLSPTQALPPPLSMPSTSHCTPPPPYPTDCSIVSFLARLGCSSCLDYFTTQGLTTIYQIEHYSMDDLASLKIPEQFRHAIWKGILDHRQLHEFSSPSHLLRTPSSASTVSVGSSETRGERVIDAVRFTLRQTISFPPRDEWNDFNFDMDARRNKQQRIKEEGE

binding (Flag-HIPK4 (WT)): binds | binding (Flag-HIPK4 (H136D)): binds
B2: TAp63, endogenous in A431 cells (protein, UniProt Q9H3D4 1-680)
chain: B1 chain
